Source: article PMC12193833, “Toxicity Assessment and Antifungal Potential of Copper(II) and Silver(I) Complexes with 1,10-Phenanthroline-5,6-dione Against Drug-Resistant Clinical Isolates of Cryptococcus gattii and Cryptococcus neoformans” (Journal of Fungi, 2025)
Like-named read-outs stand apart in the source and are kept apart here.

Columns and labels:
Sheep erythrocytes = conditions: for Selectivity index (erythrocyte CC50/Cryptococcus MIC): Erythrocytes
Protocol: To evaluate the hemolytic activity of the test compounds, the microdilution method was performed in PBS using 96-well cell culture plates, as described by Evans et al.. PBS containing the test compounds (phendione, Cu-phendione, and Ag-phendione) at varying concentrations (1.9–62.5 µM) was added to the wells. Sheep erythrocytes (Cultilab, Rio de Janeiro, RJ, Brazil) were diluted in PBS to a final concentration of 2% (approximately 2 × 10^8 erythrocytes) and added to each well. The final volume of each well was 200 μL. A negative control (PBS and blood) and a positive control (PBS, blood, and 1% Triton X-100) were also included. The plates were incubated at 37 °C for 24 h, then centrifuged at 500× g for 10 min at 4 °C. Following centrifugation, 100 μL of the supernatant from each well was transferred to a new 96-well microplate, and absorbance was measured using a microplate reader ([…] SkyHigh; Thermo Scientific, Waltham, MA, USA) at 415 nm. […] The average absorbance of the positive control was set as 100% hemolysis, and the percentage hemolysis of the other groups was calculated accordingly. The selectivity index (SI) was determined using the following equation: SI = erythrocyte CC50/Cryptococcus MIC.

[1] = system: Galleria mellonella larvae; experiment: In vivo acute toxicity, single treatment; conditions: for Selectivity index (G. mellonella CC50/Cryptococcus MIC): G. mellonella larvae
Protocol: In this set of experiments, G. mellonella larvae weighing approximately 0.2–0.3 g and displaying clear, uniform coloration were used. The larvae were inoculated (10 µL/larva) using an insulin syringe (BD Ultra-Fine, Franklin Lakes, NJ, USA) at the last left proleg. […] We also assessed their coloration through visual analysis as an indicator of stress levels. Throughout the experiments, the larvae were maintained at 37 °C [19, 42]. Two distinct treatment protocols were designed to evaluate the effects of the test compounds on larval survivability, as detailed below.
For the acute toxicity analysis, the test compounds were administered to the larvae in a single inoculation at concentrations ranging from 1000 to 125 μM. Each group consisted of 10 larvae, while the control group received only sterile PBS with 4% DMSO. […] The SI was calculated using the following equation: SI = G. mellonella CC50/Cryptococcus MIC.

[2] = C. gattii MIC, listed as Ag-Phendione
[3] = C. neoformans MIC, listed as Ag-Phendione

Row | SMILES | Selectivity index (erythrocyte CC50/Cryptococcus MIC) (Sheep erythrocytes; C. gattii MIC) | Selectivity index (erythrocyte CC50/Cryptococcus MIC) (Sheep erythrocytes; C. neoformans MIC) | Selectivity index (G. mellonella larvae) ([1]; Cryptococcus clinical isolates overall, single administration) | Selectivity index (G. mellonella CC50/Cryptococcus MIC) ([1]; C. gattii MIC) | Selectivity index (G. mellonella CC50/Cryptococcus MIC) ([1]; C. neoformans MIC) | Selectivity index (erythrocytes) (Sheep erythrocytes; Cryptococcus overall (abstract)) | Selectivity index (erythrocyte CC50/Cryptococcus MIC) (Sheep erythrocytes; [2]) | Selectivity index (erythrocyte CC50/Cryptococcus MIC) (Sheep erythrocytes; [3]) | Selectivity index (G. mellonella CC50/Cryptococcus MIC) [1, 2] | Selectivity index (G. mellonella CC50/Cryptococcus MIC) [1, 3]
1 | O.O.O.O.O=C1C(=O)c2cccnc2-c2ncccc21.O=C1C(=O)c2cccnc2-c2ncccc21.O=C1C(=O)c2cccnc2-c2ncccc21.[Cu+2].[O-][Cl+3]([O-])([O-])[O-].[O-][Cl+3]([O-])([O-])[O-] [Cu-phendione, [Cu(phendione)3](ClO4)2·4H2O] | >10 | >20 | at least 160 | >160 | >320 | – | – | – | – | –
2 | O=C1C(=O)c2cccnc2-c2ncccc21.O=C1C(=O)c2cccnc2-c2ncccc21.[Ag+].[O-][Cl+3]([O-])([O-])[O-] [Ag-phendione, [Ag(phendione)2]ClO4] | > 40 | > 40 | – | exceeding 641 | exceeding 641 | > 40 | >40 | >40 | >641 | >641
